Assay results from paper PMC5963345.
No constants are given. Whether binding was seen depends on the method and setting. In cells and extracts the contact can be indirect. Some entries that bind do so weakly or less than the wild type.

Amino acid sequences for entries named in this document (tags omitted).
UniProt O09106: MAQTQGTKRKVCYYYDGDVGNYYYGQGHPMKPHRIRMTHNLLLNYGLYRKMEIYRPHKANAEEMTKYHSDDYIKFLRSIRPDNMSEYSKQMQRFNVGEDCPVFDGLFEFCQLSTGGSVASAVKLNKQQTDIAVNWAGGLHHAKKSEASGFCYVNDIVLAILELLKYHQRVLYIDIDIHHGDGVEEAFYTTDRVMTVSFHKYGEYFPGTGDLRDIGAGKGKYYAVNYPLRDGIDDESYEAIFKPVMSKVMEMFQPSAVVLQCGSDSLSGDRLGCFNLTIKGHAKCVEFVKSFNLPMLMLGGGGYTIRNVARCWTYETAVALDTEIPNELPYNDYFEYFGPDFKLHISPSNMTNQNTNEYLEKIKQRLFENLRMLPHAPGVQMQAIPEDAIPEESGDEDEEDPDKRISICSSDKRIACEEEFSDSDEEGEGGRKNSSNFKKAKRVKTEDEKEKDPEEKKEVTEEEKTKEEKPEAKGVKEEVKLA
UniProt P70288: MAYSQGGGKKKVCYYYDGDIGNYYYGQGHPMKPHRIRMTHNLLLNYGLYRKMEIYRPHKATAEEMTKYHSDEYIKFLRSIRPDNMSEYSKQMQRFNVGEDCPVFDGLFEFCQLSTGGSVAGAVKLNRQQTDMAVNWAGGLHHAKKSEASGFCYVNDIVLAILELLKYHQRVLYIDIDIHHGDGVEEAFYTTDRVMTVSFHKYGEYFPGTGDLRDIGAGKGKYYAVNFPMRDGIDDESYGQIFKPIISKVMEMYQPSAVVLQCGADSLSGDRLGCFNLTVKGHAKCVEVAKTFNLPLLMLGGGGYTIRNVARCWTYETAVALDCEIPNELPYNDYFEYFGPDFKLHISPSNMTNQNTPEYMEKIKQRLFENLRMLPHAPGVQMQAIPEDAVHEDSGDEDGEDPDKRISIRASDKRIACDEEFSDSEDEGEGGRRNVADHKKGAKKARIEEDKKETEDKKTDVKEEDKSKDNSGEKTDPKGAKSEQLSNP

Assays:
[1] = biological target: HDAC1 (mouse (endogenous in mouse brain tissue)) (UniProt O09106); assay: co-IP; mouse brain tissue homogenates (100 ug protein) of sham, MCAO 24 h and MCAO 3 d groups, diluted in RIPA buffer; precipitated with antibody (methods: HDAC1 or HDAC2 antibody; legend: TOPK antibody) on Protein G Sepharose, 4°C overnight; Western blot
[2] = biological target: HDAC2 (mouse (endogenous in mouse brain tissue)) (UniProt P70288); assay: as above

binding [1]: binds
binding [2]: binds
B1: T-LAK-cell-originated protein kinase (TOPK) (protein, UniProt Q9JJ78 1-330)
chain: MEGINNFKTPNKSEKRKSVLCSTPCVNIPASPFMQKLGFGTGVSVYLMKRSPRGLSHSPWAVKKISLLCDDHYRTVYQKRLTDEAKILKNLNHPNIIGYRAFTEASDGSLCLAMEYGGEKSLNDLIEERNKDSGSPFPAAVILRVALHMARGLKYLHQEKKLLHGDIKSSNVVIKGDFETIKICDVGVSLPLDENMTVTDPEACYIGTEPWKPKEALEENGIITDKADVFAFGLTLWEMMTLCIPHVNLPDDDVDEDATFDESDFDDEAYYAALGTRPSINMEELDDSYQKAIELFCVCTNEDPKDRPSAAHIVEALELDGQCCGLSSKH
